Source: paper doi:10.1101/2020.11.03.366906
These are yes or no findings as the source states them, for the method shown. In cells and extracts the contact can be indirect. Some entries that bind do so weakly or less than the wild type.

Protein sequences, listed by entry. Tags and fused reporters are not part of them.
UniProt P55196: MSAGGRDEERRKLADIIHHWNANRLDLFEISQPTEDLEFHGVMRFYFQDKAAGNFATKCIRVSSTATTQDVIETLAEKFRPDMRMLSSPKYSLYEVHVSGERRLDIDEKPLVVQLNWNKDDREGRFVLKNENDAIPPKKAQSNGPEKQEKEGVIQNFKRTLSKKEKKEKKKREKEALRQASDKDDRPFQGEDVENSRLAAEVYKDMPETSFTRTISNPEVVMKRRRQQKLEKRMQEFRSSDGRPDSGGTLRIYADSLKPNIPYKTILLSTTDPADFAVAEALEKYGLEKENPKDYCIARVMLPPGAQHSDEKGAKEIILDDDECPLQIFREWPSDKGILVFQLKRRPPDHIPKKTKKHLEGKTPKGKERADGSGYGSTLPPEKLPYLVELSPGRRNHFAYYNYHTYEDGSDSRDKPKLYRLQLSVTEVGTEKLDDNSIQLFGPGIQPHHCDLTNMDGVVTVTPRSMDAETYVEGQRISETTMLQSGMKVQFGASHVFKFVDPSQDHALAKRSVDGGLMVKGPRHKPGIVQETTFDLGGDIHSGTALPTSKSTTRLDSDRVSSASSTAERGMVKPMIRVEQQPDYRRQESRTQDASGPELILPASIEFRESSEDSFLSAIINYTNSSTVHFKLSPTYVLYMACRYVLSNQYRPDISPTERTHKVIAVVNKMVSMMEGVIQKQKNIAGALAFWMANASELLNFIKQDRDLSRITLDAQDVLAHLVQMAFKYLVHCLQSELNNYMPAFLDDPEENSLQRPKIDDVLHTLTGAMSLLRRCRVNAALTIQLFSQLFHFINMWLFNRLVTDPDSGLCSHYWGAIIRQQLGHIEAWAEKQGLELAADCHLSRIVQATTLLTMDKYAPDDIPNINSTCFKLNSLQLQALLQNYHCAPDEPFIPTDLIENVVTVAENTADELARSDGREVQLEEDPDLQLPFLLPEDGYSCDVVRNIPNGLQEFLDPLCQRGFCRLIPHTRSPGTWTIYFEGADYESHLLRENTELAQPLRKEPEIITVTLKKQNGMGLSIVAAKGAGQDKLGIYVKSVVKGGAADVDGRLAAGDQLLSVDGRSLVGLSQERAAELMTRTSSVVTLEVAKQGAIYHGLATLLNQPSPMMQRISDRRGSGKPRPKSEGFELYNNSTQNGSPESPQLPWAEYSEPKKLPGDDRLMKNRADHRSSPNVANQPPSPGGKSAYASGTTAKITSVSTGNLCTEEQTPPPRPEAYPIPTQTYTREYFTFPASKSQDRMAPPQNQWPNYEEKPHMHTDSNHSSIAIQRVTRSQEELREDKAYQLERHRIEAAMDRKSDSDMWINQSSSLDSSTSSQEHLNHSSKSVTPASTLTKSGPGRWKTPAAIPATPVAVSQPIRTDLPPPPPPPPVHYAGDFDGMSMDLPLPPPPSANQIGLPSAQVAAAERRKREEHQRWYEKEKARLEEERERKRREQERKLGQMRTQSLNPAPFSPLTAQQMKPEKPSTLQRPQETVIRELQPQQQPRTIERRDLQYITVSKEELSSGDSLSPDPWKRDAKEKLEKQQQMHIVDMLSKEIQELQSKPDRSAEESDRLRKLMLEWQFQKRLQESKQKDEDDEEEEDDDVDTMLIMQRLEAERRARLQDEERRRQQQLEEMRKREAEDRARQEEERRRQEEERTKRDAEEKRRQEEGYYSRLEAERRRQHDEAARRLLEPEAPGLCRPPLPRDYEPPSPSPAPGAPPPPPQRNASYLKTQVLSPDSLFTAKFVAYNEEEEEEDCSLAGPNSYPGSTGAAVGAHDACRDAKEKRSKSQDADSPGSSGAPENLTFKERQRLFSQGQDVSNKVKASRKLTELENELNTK

Molecular target: Afadin (human (endogenous in Caco-2)) (UniProt P55196)
Experiment: co-IP

binding: binds
B1: ASPP2 (protein, UniProt Q13625 1-1128)
chain: MMPMFLTVYLSNNEQHFTEVPVTPETICRDVVDLCKEPGESDCHLAEVWCGSERPVADNERMFDVLQRFGSQRNEVRFFLRHERPPGRDIVSGPRSQDPSLKRNGVKVPGEYRRKENGVNSPRMDLTLAELQEMASRQQQQIEAQQQLLATKEQRLKFLKQQDQRQQQQVAEQEKLKRLKEIAENQEAKLKKVRALKGHVEQKRLSNGKLVEEIEQMNNLFQQKQRELVLAVSKVEELTRQLEMLKNGRIDSHHDNQSAVAELDRLYKELQLRNKLNQEQNAKLQQQRECLNKRNSEVAVMDKRVNELRDRLWKKKAALQQKENLPVSSDGNLPQQAASAPSRVAAVGPYIQSSTMPRMPSRPELLVKPALPDGSLVIQASEGPMKIQTLPNMRSGAASQTKGSKIHPVGPDWSPSNADLFPSQGSASVPQSTGNALDQVDDGEVPLREKEKKVRPFSMFDAVDQSNAPPSFGTLRKNQSSEDILRDAQVANKNVAKVPPPVPTKPKQINLPYFGQTNQPPSDIKPDGSSQQLSTVVPSMGTKPKPAGQQPRVLLSPSIPSVGQDQTLSPGSKQESPPAAAVRPFTPQPSKDTLLPPFRKPQTVAASSIYSMYTQQQAPGKNFQQAVQSALTKTHTRGPHFSSVYGKPVIAAAQNQQQHPENIYSNSQGKPGSPEPETEPVSSVQENHENERIPRPLSPTKLLPFLSNPYRNQSDADLEALRKKLSNAPRPLKKRSSITEPEGPNGPNIQKLLYQRTTIAAMETISVPSYPSKSASVTASSESPVEIQNPYLHVEPEKEVVSLVPESLSPEDVGNASTENSDMPAPSPGLDYEPEGVPDNSPNLQNNPEEPNPEAPHVLDVYLEEYPPYPPPPYPSGEPEGPGEDSVSMRPPEITGQVSLPPGKRTNLRKTGSERIAHGMRVKFNPLALLLDSSLEGEFDLVQRIIYEVDDPSLPNDEGITALHNAVCAGHTEIVKFLVQFGVNVNAADSDGWTPLHCAASCNNVQVCKFLVESGAAVFAMTYSDMQTAADKCEEMEEGYTQCSQFLYGVQEKMGIMNKGVIYALWDYEPQNDDELPMKEGDCMTIIHREDEDEIEWWWARLNDKEGYVPRNLLGLYPRIKPRQRSLA
